Measured values: patent publication US12630586 (dated 2026)
*: point of attachment. Acm = CC(=O)NC*

Tests used:
[1] = general procedure: hybrid (solid and solution phase) peptide synthesis; 2-CTC resin; DIC/HOBT (solid phase); HATU/HOAT/DIPEA (fragment coupling in solution); details: whole synthesis, analytical HPLC, scale of the general procedure 750 gm CTC resin (Fragment A), 445 gm CTC resin (Fragment D)
[2] = general procedure: hybrid (solid and solution phase) peptide synthesis; 2-chlorotrityl (CTC) resin; DIC/HOBT (solid phase); HATU/HOAT/DIPEA (fragment coupling in solution); details: late stage modification step, analytical HPLC

Row | Substance | final purity (method not given) [1] | further results
1 | Boc-Asn(Xan)-Asp(Otbu)-Glu(Otbu)-Cys(Trt)-Glu(Otbu)-Leu-OH | 90.74% | –
2 | Fmoc-Cys(Acm)-Val-Asn(Trt)-Val-Ala-Cys(Trt)-Thr(tbu)-OH | 94.29% | –
3 | H-Cys(Acm)-Val-Asn(Trt)-Val-Ala-Cys(Trt)-Thr(tbu)-Gly-Cys(Acm)-Leu-Otbu | – | crude HPLC purity [2]: ˜ 97%
4 | H-NDECELC(Acm)VNVACTGC(Acm)L-OH (cysteine pairing not given here) | – | crude purity (method not given) [2]: 73%
